Data reported in patent US20060276393A1, “Novel compositions for preventing and treating neurodegenerative and blood coagulation disorders” (Sirtris Pharmaceuticals, Inc., priority 2005, published 2006).
At least one structure is not confirmed: it was looked up by name or label, or the drawing left a doubt.

System: Experimental autoimmune encephalomyelitis (EAE) in SJL/J mice
Conditions: FK506 5 mg/kg

C=CC[C@@H]1/C=C(\C)C[C@H](C)C[C@H](OC)[C@H]2O[C@@](O)(C(=O)C(=O)N3CCCC[C@H]3C(=O)O[C@H](/C(C)=C/[C@@H]3CC[C@@H](O)[C@H](OC)C3)[C@H](C)[C@@H](O)CC1=O)[C@H](C)C[C@@H]2OC [FK506]
clinical course: reduced the severity of the initial disease and suppressed relapses
